Results are given in words; binding and its absence hold for the method and conditions named. Some entries that bind do so weakly or less than the wild type.

Chains of the proteins cited; added tags and fusions are not shown. Lines headed by an entry give the natural chain unless they say otherwise; changes in a name come on top. A line that says so, or that is headed by a name, gives the form on record, which may keep a tag or linker. Residues count along the entry.
human-derived cell death receptor 4, extracellular domain (amino acid residues 1-216), 6xHis tag (O00220, form named): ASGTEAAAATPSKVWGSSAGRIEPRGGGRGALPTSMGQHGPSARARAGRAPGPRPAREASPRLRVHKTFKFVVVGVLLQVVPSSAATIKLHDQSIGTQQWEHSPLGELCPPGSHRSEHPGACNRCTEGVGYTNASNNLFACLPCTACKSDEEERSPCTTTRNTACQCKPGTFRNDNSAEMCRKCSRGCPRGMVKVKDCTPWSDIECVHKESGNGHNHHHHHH

Experimental findings from US20120021993A1 (AJOU UNIVERSITY INDUSTRY ACADEMIC COOPERATION FOUNDATION, published 2012) are described below.

For experiment [1], the target named is human-derived cell death receptor 4, extracellular domain (amino acid residues 1-216), 6xHis tag (human) (UniProt O00220). Briefly: yeast display, flow cytometry MFI [panel KD413].
The target is the same in experiment [2]. The experiment can be described thus: ELISA and sandwich ELISA (plate-coated DR4, soluble DR5).
Experiment [3] has the same target. The experiment can be described thus: sandwich ELISA: DR4 coated, binder titrated, soluble DR5 detected, A405. On the technique in general: An ELISA detects its analyte on a solid surface through an enzyme-linked reagent.
Experiment [4] has the same target. Briefly: ELISA, coated DR4, A405.
The target is the same in experiment [5]. Briefly: sandwich ELISA (figure legend).
The target of experiment [6] is T1, DcR1 (UniProt O14798 26-221, limits assumed).
T1 sequence (looked up): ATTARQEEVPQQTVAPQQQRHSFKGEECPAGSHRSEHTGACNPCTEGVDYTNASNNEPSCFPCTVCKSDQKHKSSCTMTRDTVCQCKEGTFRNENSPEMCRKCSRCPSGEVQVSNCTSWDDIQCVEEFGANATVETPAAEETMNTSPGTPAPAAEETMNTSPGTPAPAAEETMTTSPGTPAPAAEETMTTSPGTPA
The experiment can be described thus: cross-reactivity ELISA.

Experiment [7] addresses T1, DcR1. The experiment can be described thus: ELISA, coated target, single binder concentration not given, A405.
For experiment [8], the target named is human-derived cell death receptor 4, extracellular domain (amino acid residues 1-216), 6xHis tag (human) (UniProt O00220). Described as above.
Another experiment addresses T2, DcR2 (UniProt Q9UBN6 56-211, limits assumed).
T2 sequence (looked up): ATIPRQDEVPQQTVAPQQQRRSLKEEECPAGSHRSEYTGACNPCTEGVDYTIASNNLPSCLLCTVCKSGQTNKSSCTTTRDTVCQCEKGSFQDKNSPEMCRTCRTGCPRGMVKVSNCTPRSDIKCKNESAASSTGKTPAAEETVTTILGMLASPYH
The description is as above.

For experiment [9], the target named is human-derived cell death receptor 4, extracellular domain (amino acid residues 1-216), 6xHis tag (human) (UniProt O00220). The experiment can be described thus: ELISA, coated target, A405.
Experiment [10] has the same target. The experiment can be described thus: yeast display, flow cytometry MFI [panel KD415].
Experiment [11] has the same target. The experiment can be described thus: yeast display, flow cytometry MFI [panel KD548]. Background: Flow cytometry measures light scatter and fluorescence of single cells or particles in a stream.
Experiment [12] has the same target. Briefly: ELISA.
The target is the same in experiment [13]. The experiment can be described thus: yeast display, flow cytometry MFI.

B1: L1234 (KD413) (designed binder)
chain: CAKAEGTGYDGHEHKTHKGIRCQNWYKSKPHYHGHQFRDGDKIKNKKNYCRNPDRELRPWCFTTDPNKRWELCDIPRC
notes: also called KD413L1234
In the case of B1, the binding entry in [1] was “binds”.

B2: KD413-KD506 hetero-dimer (designed binder, not shown: small tags and cut ends)
chain: CAKAEGTGYDGHEHKTHKGIRCQNWYKSKPHYHGHQFRDGDKIKNKKNYCRNPDPRAGPWCFTHGNRNRYELCNQPRCGGGGSGGGGSGGGGSGGGGSCPEDRGHEYDGDGDKTNRGHGCQYWDQNKPHHHGHRDKDKFKHRIKKNYCRNPDYETGPWCFTNRYRNKNELCHEPRC
For B2, the binding entry in experiment [2], in experiment [3], in [4] and in experiment [5] was “binds” each time.

B3: KD404 (designed binder)
chain: CSRDKGYRYDGDGNKTLKGHKCQHWTKSKPHDHGYRHKLGNEDKFKKNYCRNPDTRAGPWCFTDQYRDRDELCYQPRC
notes: Soluble monomer from Pichia pastoris; also called anti-DR4 Kringle domain variant KD404; not shown: C-terminal myc tag-6xHis tag of pPICZaA
As for B3, the binding result with DcR1 [6] and in the experiment with DcR1 [7] was “binds” in each case.

B4: KD559 (designed binder, not shown: small tags and cut ends)
chain: CNKHKGPRYDGHKDKTNKGHECQPWNRPKPHDHGHKHQFKDKNRLEKNYCRNPDHRNEPWCFTHGNRNGDELCFRPRC
Turning to B4, the binding entry (in [8]; with DcR2; in the experiment with DcR1 [7]) was “binds” throughout.

B5: KD449 (designed binder)
chain: CDRYKGYRYDGHRYKTHKGHKCQHWDEDQPHNHGHGHRIKDGFEVRKNYCRNPDAGTKPWCFTDKDQNRHELCYKPRC
B5: the binding entry in [8] and in experiment [9] was “binds” each time.

B6: L1234 (KD415) (designed binder)
chain: CTRSKGDEYDGHKHKTNRGLRCQHWPGTKPHFHGDKIKDRHGFRLKKNYCRNPDRELRPWCFTTDPNKRWELCDIPRC
notes: also called KD415L1234
Regarding B6, the binding entry in experiment [10] is listed as “binds”.

B7: L1234 (KD548) (designed binder)
chain: CHQTQGPKYDGNKDKTHKGHKCQSWTKNRPHHHGNKIENEDENRFQKNYCRNPDRELRPWCFTTDPNKRWELCDIPRC
notes: also called KD548L1234
Consider B7, for which the binding entry in experiment [11] is on record as “binds”.

B8: KD413-KD415 hetero-dimer (designed binder, not shown: small tags and cut ends)
chain: CAKAEGTGYDGHEHKTHKGIRCQNWYKSKPHYHGHQFRDGDKIKNKKNYCRNPDPRAGPWCFTHGNRNRYELCNQPRCGGGGSGGGGSGGGGSGGGGSCTRSKGDEYDGHKHKTNRGLRCQHWPGTKPHFHGDKIKDRHGFRLKKNYCRNPDPQDQPWCFTNRHQHKNELCNQPRC
With B8, the binding result in [9] and in experiment [12] was “binds” throughout.

B9: KD413L56 (designed binder)
chain: CMHCSGENYDGKISKTMSGLECQAWDSQSPHAHGYIPSKFPNKNLKKNYCRNPDPRAGPWCFTHGNRNRYELCDIPRC
As for B9, the binding result in [1] and in experiment [13] was “binds” each time.

B10: KD415L567 (designed binder)
chain: CMHCSGENYDGKISKTMSGLECQAWDSQSPHAHGYIPSKFPNKNLKKNYCRNPDPQDQPWCFTNRHQHKNELCNQPRC
For B10, the binding entry in [13] and in [10] was “binds” each time.

B11: KD548L56 (designed binder)
chain: CMHCSGENYDGKISKTMSGLECQAWDSQSPHAHGYIPSKFPNKNLKKNYCRNPDNKHEPWCFTHGHRDKHELCDIPRC
For B11, the binding entry in [11] is “binds”.

B12: L567 (KD413) (designed binder)
chain: CMHCSGENYDGKISKTMSGLECQAWDSQSPHAHGYIPSKFPNKNLKKNYCRNPDPRAGPWCFTHGNRNRYELCNQPRC
notes: also called KD413L567
Consider B12, for which, in [1], the binding entry is on record as “binds”.

B13: L567 (KD548) (designed binder)
chain: CMHCSGENYDGKISKTMSGLECQAWDSQSPHAHGYIPSKFPNKNLKKNYCRNPDNKHEPWCFTHGHRDKHELCHEPRC
notes: also called KD548L567; not shown: Aga2p display anchor, linker and c-myc tag of the pCTCON yeast display vector
Consider B13, for which the binding result in [11] was “binds”.

B14: L5 (KD413) (designed binder)
chain: CMHCSGENYDGKISKTMSGLECQAWDSQSPHAHGYIPSKFPNKNLKKNYCRNPDPRAGPWCFTTDPNKRWELCDIPRC
notes: also called KD413L5
In the case of B14, the binding entry in experiment [1] is reported as “binds”.

B15: L56 (KD415) (designed binder)
chain: CMHCSGENYDGKISKTMSGLECQAWDSQSPHAHGYIPSKFPNKNLKKNYCRNPDPQDQPWCFTNRHQHKNELCDIPRC
notes: also called KD415L56
Consider B15, for which the binding result in [10] was “binds”.

B16: KD542 (designed binder)
chain: CNRAGGHKYDGDRYRTHRGDGCQNWAKTKPHHHGIGHRDKIRDKYRKNYCRNPDAKNGPWCFTNRNGDKNELCIQPRC
notes: Soluble monomer from Pichia pastoris; not shown: C-terminal myc tag-6xHis tag of pPICZaA
Take B16: the binding result with DcR2 and in the experiment with DcR1 [7] was “binds” each time.
